In US5126326A (Bio-Mega, Inc., priority 1989, dated 1992):

Experiment: general procedure: solution-phase peptide synthesis; BOP
Details: HCl

Substance | step yield (late stage modification step) [%] | step yield (coupling step) [%]
Boc-Tyr(OAcOBzl)-Val-ACHPA-Leu-Phe-NH2 | 72 | –
Boc-Tyr-Val-ACHPA-Leu-Phe-NH2 | – | 66
Boc-Val-ACHPA-Leu-Phe-NH2 | – | 84
PEPTIDE1{[Boc].[Tyr(O-AcOH)].V.[ACHPA].L.F.[am]}$$$$V2.0 | 70 | –
PEPTIDE1{[Tyr(O-AcOBzl)].V.[ACHPA].L.F.[am]}$$$$V2.0 | 65 | –
PEPTIDE1{[Tyr(O-AcOH)].V.[ACHPA].L.F.[am]}$$$$V2.0 | 86 | –

Strings that start with PEPTIDE1 are HELM notation: dots part the residues, brackets hold end groups and non-standard residues.
